For some assays here: At least one compound was matched to its structure with a doubt left. Some results were stated once for a whole list of compounds, not compound by compound.
Legend:
Type in all cases: cell-based
[1] = tested on: isolated rat adipocytes; test: Glucose utilization (uptake) by isolated cultured rat adipocytes; conditions: NEM 0.1 μM, DTNB 100 μM; percent of control
Method: (§1) Cell isolation/preparation: Adipocytes are prepared from epididymal fat pads from male Sprague-Dawley rats weighing 300-600 g. Epididymal fat depots are resected from halothane anesthetized rats under aseptic conditions and adipocytes are isolated by collagenase digestion by the Rodbell method (Rodbell M. Metabolism of isolated fat cells. I. Effects of hormones on glucose metabolism and lipolysis. J Biol Chem. 1964; 239: 375-380), with minor modifications as previously described (Mueller W M, Gregoire F M, Stanhope K L, Mobbs C V, Mizuno T M, Warden C H, Stem J S, Havel P J. Evidence that glucose metabolism regulates leptin secretion from isolated adipocytes. Endocrinology 139: 551-558, 1998; Mueller W M, Stanhope K L, Gregoire F, Evans J L, Havel P J. Effects of metformin and vanadium on leptin secretion from cultured rat adipocytes. Obesity Res. 8: 530-539, 2000; Medina E A, Stanhope K L, Mizuno T M, Mobbs C V, Gregoire F, Hubbard N E, Erickson K L, Havel P J. Effects of tumor necrosis factor alpha on leptin secretion and gene expression: relationship to changes of glucose metabolism in isolated rat adipocytes. Int J Obes Relat Metab Disord. 23: 896-903, 1999.). The isolated adipocytes are then incubated for 30 minutes at 37 C before being plated and cultured on Matrigel-coated plates. […]

[2] = tested on: isolated rat adipocytes; test: Leptin secretion/production by isolated cultured rat adipocytes (RIA)
Method: as §1

[3] = tested on: cultured rat adipocytes; test: Adiponectin secretion by isolated cultured rat adipocytes over 96 h; conditions: TZD, 10 μM Troglitazone, adipocytes from 3 depots
Method: Several studies have reported that thiazolidenediones (TZDs), agonists of PPARγ, increase adiponectin expression and circulating levels in animals (Maeda, 2001; Yamauchi, 2001a; Ye, 2003). TZD (10 μM Troglitazone) stimulated of adiponectin secretion from cultured rat adipocytes from 3 different depots (n=6). Mesenteric fat produced the largest amount of adiponectin over 96 hours in culture. (FIG. 5A). Adiponectin secretion from both the control- and TZD-treated adipocytes was well correlated with the glucose utilization (control, r=0.79; p<0.001); (TZD-treated, r=0.84, p=<0.0001, FIG. 5B) showing that, similar to leptin production, glucose metabolism also is involved in the regulation of adiponectin production by adipocytes.
Insulin increased adiponectin production from 3 different fat depots, however as in the experiments with troglitazone, the mesenteric depot produced the most adiponectin (FIG. 6B). Like leptin, both basal and insulin-stimulated adiponectin secretion was highly correlated to glucose utilization (r=0.91, p<0.0001) (FIG. 6C), and inversely related to the proportion of glucose metabolized to lactate (r=−0.81, p<0.0001) (FIG. 6D).
Also paralleling the regulation of leptin, adiponectin secretion by isolated cultured adipocytes was increased during 96 h culture by inhibitors of PDH-K. DTNB (100 μM) increased adiponectin secretion by 40% (p<0.03, n=6, FIG. 7A). […]

CCN1C(=O)C=CC1=O [NEM, N-ethylmaleimide]
increase of adipocyte glucose utilization [1]: 30-80%

CC(=O)C(=O)O [Pyruvate]
effect on leptin secretion (in words) ([2]; pyruvate in the absence of insulin and glucose): stimulates
effect on leptin secretion (in words) ([2]; pyruvate in the presence of glucose and insulin): inhibits

Cc1c(C)c2c(c(C)c1O)CCC(C)(COc1ccc(CC3SC(=O)NC3=O)cc1)O2 (centres unmarked) [Troglitazone]
effect on adiponectin secretion (in words) [3]: stimulated
effect on adiponectin secretion (in words) ([3]; listed as troglitazone): increase
